Data from patent US20090053196A1.
These are yes or no findings as the source states them, for the method shown. Binding seen in cells or lysates may run through a third protein. Some results given as binding are weak or reduced against the parent protein; the word gives no strength. Sequences can lack the tags named with a protein.

Legend:
[1] = molecular target: T1, GST-UFD-2 (Caenorhabditis elegans) (UniProt Q09349); assay: pull-down on immobilized UFD-2, SDS-PAGE
T1 sequence (looked up): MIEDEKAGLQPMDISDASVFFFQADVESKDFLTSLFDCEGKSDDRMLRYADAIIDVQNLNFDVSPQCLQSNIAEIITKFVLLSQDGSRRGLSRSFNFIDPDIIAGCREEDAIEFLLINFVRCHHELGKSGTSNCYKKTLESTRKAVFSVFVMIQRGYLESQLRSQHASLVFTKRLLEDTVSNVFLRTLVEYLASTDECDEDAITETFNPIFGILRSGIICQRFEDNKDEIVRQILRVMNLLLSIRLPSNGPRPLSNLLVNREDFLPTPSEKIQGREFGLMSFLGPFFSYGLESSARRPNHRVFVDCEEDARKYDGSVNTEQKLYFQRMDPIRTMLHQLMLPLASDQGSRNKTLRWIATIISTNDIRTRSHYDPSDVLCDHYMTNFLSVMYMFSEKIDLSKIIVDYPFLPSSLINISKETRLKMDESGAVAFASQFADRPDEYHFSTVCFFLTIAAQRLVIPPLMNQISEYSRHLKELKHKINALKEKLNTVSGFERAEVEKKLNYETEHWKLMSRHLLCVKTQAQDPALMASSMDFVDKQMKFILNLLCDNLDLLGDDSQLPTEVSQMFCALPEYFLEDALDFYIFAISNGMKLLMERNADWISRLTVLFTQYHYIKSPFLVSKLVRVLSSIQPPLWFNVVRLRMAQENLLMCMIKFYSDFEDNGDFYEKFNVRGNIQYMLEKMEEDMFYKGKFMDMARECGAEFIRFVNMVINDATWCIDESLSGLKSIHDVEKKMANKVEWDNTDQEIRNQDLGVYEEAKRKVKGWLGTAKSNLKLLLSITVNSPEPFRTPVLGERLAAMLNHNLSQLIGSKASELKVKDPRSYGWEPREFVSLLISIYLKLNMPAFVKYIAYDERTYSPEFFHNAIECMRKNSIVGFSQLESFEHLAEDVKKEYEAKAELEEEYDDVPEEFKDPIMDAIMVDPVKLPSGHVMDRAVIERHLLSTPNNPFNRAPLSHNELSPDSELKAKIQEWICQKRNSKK

[2] = molecular target: T1, GST-UFD-2 (Caenorhabditis elegans); assay: GST pull-down, Western blot with anti-myc
[3] = molecular target: T1, GST-UFD-2 (Caenorhabditis elegans); assay: title of FIG. 1 (two-hybrid and GST pull-down)
[4] = molecular target: T1, GST-UFD-2 (Caenorhabditis elegans); assay: GST pull-down on immobilized GST-UFD-2, Western blot with anti-myc
[5] = molecular target: T1, GST-UFD-2 (Caenorhabditis elegans); assay: GST pull-down, ^mycCHN-1 alone or together with UNC-45^FLAG

Measured: binding

B1: myc-tagged CHN-1 (^mycCHN-1) (enzyme, not shown: small tags and cut ends)
chain: MSSGAEQHNTNGKKCYMNKRYDDAVDHYSKAIKVNPLPKYYQNRAMCYFQLNNLKMTEEDCKRALELSPNEVKPLYFLGNVFLQSKKYSEAISCLSKALYHNAVITNAPDIENALKRARHQKYEEEESKRIVQDVEFHTYLESLIEKDRQENSENPEELQRADMAKKRLTELTLATQEKRQNREVPEMLCGKITLELMKEPVIVPSGITYDREEIVQHLRRIGHFDPVTRKPLTENEIIPNYALKEVIEKFLDDNPWAKYEPGGMV
binds: all assays above
